Data set [1] can be described thus: in vitro. The note with it: human. Here is the method: Human iPS cells (FF-1) were treated with a serum-free medium containing 100 ng/mL activin A for 24 hours to initiate differentiation. […] Thereafter, the cells were cultured in Advanced DMEM/F-12 containing 2% FBS, 1% GlutaMax, 100 units/mL penicillin G, 100 μg/mL streptomycin sulfate, and 250 ng/mL FGF2 for 96 hours to differentiate into small intestine stem cells. The small intestine stem cell-like cells after the treatment with activin A and FGF2 were detached with Aecutase and seeded on GFR Matrigel which was diluted 30-fold with human iPS medium in advance. After seeding, the cells were cultured for 19 to 23 days in Advanced DMEM/F-12 containing 2% FBS, 0.1 mM NEAA, 2 mM L-Glu, 100 units/mL penicillin G, 100 μg/mL streptomycin sulfate, 2% B27 supplement, 1% N2 supplement, 1% HepExtend supplement, 20 ng/mL EGF, and 30 μM Forskolin. From 12 to 16 days before the end of differentiation, differentiation into small intestinal epithelial cells was induced was by adding PD98059 to 20 μM, 5-aza-2′-deoxycytidine (5-aza-2′-dC) to 5 μM, and A-83-01 to 0.5 μM.
HESS (pH 6.5) was added to a chamber on the apical side of human iPS cell-derived small intestinal epithelial cells and Caco-2 cells seeded on Cell culture insert, HBSS (pH 7.4) was added to a chamber on the basal side, and pre-incubated at 37° C. for 60 minutes. […] The unchanged substance was measured using UPLC-MS/MS. […]

The nature of data set [2]: in vitro. Particulars: human, Caco-2. Here is the method:
HESS (pH 6.5) was added to a chamber on the apical side of human iPS cell-derived small intestinal epithelial cells and Caco-2 cells seeded on Cell culture insert, HBSS (pH 7.4) was added to a chamber on the basal side, and pre-incubated at 37° C. for 60 minutes. […] A sample was collected from the receiver chamber every 15 minutes. The unchanged substance was measured using UPLC-MS/MS. Fa·Fg in humans was referred from, previous reports (References 1 to 6 below). • Reference 1: Takenaka T, Harada N, Kuze J, Chiba M, Iwao T, Matsunaga T. Human small intestinal epithelial cells differentiated from adult intestinal stem cells as a novel system for predicting oral drug absorption in humans. Drug Metab Dispos. […] Expert Opin Drug Metab Toxicol.

For data set [3] the following is noted: in humans, from References 1 to 6; cited from earlier work.

With `CC1=C(C(=O)O)N2C(=O)[C@@H](NC(=O)[C@H](N)c3ccccc3)[C@H]2SC1` [Cephalexin, cephalexin], the Papp A→B at 60 min in the data set “in vitro [1]” came to 2.36 ×10⁻⁶ cm/s; in “in vitro [2]” it was 0.23 ×10⁻⁶ cm/s. In addition, the Fa · Fg/100 in data set [3] was 0.96.

Source of the values: patent US12054746B2, “Method for inducing differentiation of pluripotent stem cells into intestinal epithelial cells” (PUBLIC UNIVERSITY CORPORATION NAGOYA CITY UNIVERSITY, priority 2018, dated 2024).
